Test results from the supplement of paper PMC10849652.
Some of the results follow.

By UniProt entry, the sequences of proteins in these tests, tags left out. Where a name states a change or a piece, a line headed by the entry shows the natural chain unless it says otherwise.
UniProt Q9NP81: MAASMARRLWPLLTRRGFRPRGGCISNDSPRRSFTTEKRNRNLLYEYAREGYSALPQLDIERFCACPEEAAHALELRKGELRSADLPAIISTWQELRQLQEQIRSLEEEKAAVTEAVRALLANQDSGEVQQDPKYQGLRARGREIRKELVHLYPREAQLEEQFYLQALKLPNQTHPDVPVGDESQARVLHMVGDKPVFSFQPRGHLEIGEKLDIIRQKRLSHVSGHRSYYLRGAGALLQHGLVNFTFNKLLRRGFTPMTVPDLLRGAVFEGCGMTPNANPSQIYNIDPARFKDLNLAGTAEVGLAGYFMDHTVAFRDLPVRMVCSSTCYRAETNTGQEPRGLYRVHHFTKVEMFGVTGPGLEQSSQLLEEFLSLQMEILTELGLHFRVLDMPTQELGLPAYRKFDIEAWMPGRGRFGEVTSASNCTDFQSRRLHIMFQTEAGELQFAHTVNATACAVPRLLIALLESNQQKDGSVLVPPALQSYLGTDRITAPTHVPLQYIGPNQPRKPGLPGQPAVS

What was measured:
Experiment in all cases: log2 fold change, soluble protein after heating vs DMSO (PISA); higher = thermal stabilisation; K562 lysate, 10 uM; active = over 0.2 and 3.5 SD of the protein, either way, in both replicates (recomputed)
[1] = compound: C#Cc1cccc(Nc2ncnc3cc(OCCOC)c(OCCOC)cc23)c1 [erlotinib]
Summary of the method: (§1)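 Pellets of K562 cells were dounce-homogenised in PBS pH 7.4 with 1 mM MgCl2, and the crude extract was held at 1 mg/mL protein for a 30 min treatment with 10 μM compound. Aliquots were heated for 3 min over 48°C-58°C and pooled before NP-40 was added to 0.5% at 4°C. The supernatant from 21,000xg for 90 min was quantified by TMTpro 16plex LC-MS/MS with channel sums equalised. Values are reported from duplicates as log-two fold change in thermal stability relative to solvent controls.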

[2] = compound: C/C(=N\NC(=O)C1=CC(=CC=C1)S(=O)(=O)N2CCOCC2)/C3=C(C=CC(=C3)Cl)O
Summary of the method: as §1

[3] = compound: C1=CC(=CC=C1C2=NC3=C(N2)C=C(C=C3)C(=O)N)OC4=CC=C(C=C4)Cl
Summary of the method: as §1

[4] = compound: C1=CC2=C(C=CC(=C2)/C=C\3/C(=O)NC(=NCC4=CC=CS4)S3)N=C1
Summary of the method: as §1

[5] = compound: C1=CC2=NC=CN=C2C=C1/C=C/3\C(=O)NC(=O)S3
Summary of the method: as §1

[6] = compound: C1=CC=C(C=C1)C2=NC(=C(N2)C3=CC=NC=C3)C4=CC(=C(C=C4)Cl)O
Summary of the method: as §1

[7] = compound: C1=CC=C(C=C1)[C@H](COC2=CC3=C(C=C2)NC(=O)N3)NC(=O)C4=CC=CN(C4=O)CC5=CC(=C(C=C5)F)F
Summary of the method: as §1

[8] = compound: C1=CC=C2C(=C1)C3=NNC4=CC=CC(=C43)C2=O
Summary of the method: as §1

[9] = compound: C1CCN(C1)C(=O)NC2=CC=CC(=C2)NC3=NC=C(C(=N3)NCCC4=CN=CN4)Br
Summary of the method: as §1

[10] = compound: C1CN(CCC1(CC2=CC=C(C=C2)Cl)N)C3=NC=NC4=C3C=CN4
Summary of the method: as §1

[11] = compound: C1COCCN1CCN2C3=CC=CC=C3N=C2NC(=O)C4=CC(=CC=C4)[N+](=O)[O-] [IRAK-1-4 Inhibitor I]
Summary of the method: as §1

[12] = compound: C=CC(=O)N1CCC[C@@H](n2nc(-c3ccc(Oc4ccccc4)cc3)c3c(N)ncnc32)C1 [ibrutinib]
Summary of the method: as §1

[13] = compound: CC(=O)c1cnc2ccc(-c3cc(Cl)c(O)c(Cl)c3)nc2c1N[C@H]1CC[C@H](CN(C)C)CC1
Summary of the method: as §1

[14] = compound: CC(C)(C)Cn1c(N)nc2ccc(-c3[nH]c(C(C)(C)C)nc3-c3ccc(F)cc3)nc21 [ralimetinib]
Summary of the method: as §1

[15] = compound: CC(C)(O)CC(=O)NCCn1ccc2ncnc(Nc3ccc(Oc4cccc(C(F)(F)F)c4)c(Cl)c3)c21
Summary of the method: as §1

[16] = compound: CC(C)C1=C2N=C(C=C(N2N=C1)NCC3=CC=CC=C3)NCCCCCCN
Summary of the method: as §1

[17] = compound: CC1=C(C(CC(=O)N1)C2=CC=C(C=C2)C(F)(F)F)C(=O)NC3=C(C=C4C(=C3)C=NN4)F
Summary of the method: as §1

[18] = compound: CC1=C(C2=C(C=C1)C(=O)C3=CC=CC=C3N2CCCN)C
Summary of the method: as §1

[19] = compound: CC1=C(C=C(C=C1)NC(=O)C2=CC(=CC=C2)C(C)(C)C#N)NC3=CC4=C(C=C3)N=CN(C4=O)C
Summary of the method: as §1

[20] = compound: CC1=C(C=C(C=C1)NC(=O)C2=CC(=CC=C2)N(C)C)NC(=O)C3=CC=C(C=C3)O
Summary of the method: as §1

[21] = compound: CC1=C(SC2=C1C(=N[C@H](C3=NN=C(N32)C)CC(=O)N)C4=CC=C(C=C4)Cl)C
Summary of the method: as §1

[22] = compound: CC1=C2C(=CC=C1)N=C(N(C2=O)C3=CC=CC=C3C)CN4C=NC5=C(N=CN=C54)N
Summary of the method: as §1

[23] = compound: CC1=CC=C(C=C1)SC2=C3C=C(SC3=CN=C2)C(=O)N
Summary of the method: as §1

[24] = compound: CCCS(=O)(=O)Nc1ccc(F)c(C(=O)c2c[nH]c3ncc(-c4ccc(Cl)cc4)cc23)c1F [vemurafenib]
Summary of the method: as §1

[25] = compound: CCCS(=O)(=O)Nc1ccc(F)c(C(=O)c2c[nH]c3ncc(Cl)cc23)c1F
Summary of the method: as §1

[26] = compound: CCN(CCCOc1ccc2c(Nc3cc(CC(=O)Nc4cccc(F)c4)[nH]n3)ncnc2c1)CCOP(=O)(O)O [barasertib]
Summary of the method: as §1

[27] = compound: CC[C@@H]1C(=O)N(C)c2cnc(Nc3ccc(C(=O)NC4CCN(C)CC4)cc3OC)nc2N1C1CCCC1
Summary of the method: as §1

[28] = compound: CC[C@@H]1C(=O)N(C)c2cnc(Nc3ccc(C(=O)N[C@H]4CC[C@H](N5CCN(CC6CC6)CC5)CC4)cc3OC)nc2N1C(C)C [volasertib]
Summary of the method: as §1

[29] = compound: CCn1c(C(=O)N(C2CC2)C2CC2)cc2c3c(ncn3C)c(Nc3cc(C)n(C)n3)nc21
Summary of the method: as §1

[30] = compound: CCn1cc(-c2ccnc3[nH]c(-c4cccc(CN(C)C)c4)cc23)c(-c2ccc(NC(=O)N(C)C)cc2)n1
Summary of the method: as §1

[31] = compound: CN1CCC(CNc2ccc3ncc(-c4cccc(OC(F)(F)F)c4)n3n2)CC1
Summary of the method: as §1

[32] = compound: CN1CCN(CCOc2cc(OC3CCOCC3)c3c(Nc4c(Cl)ccc5c4OCO5)ncnc3c2)CC1 [saracatinib]
Summary of the method: as §1

[33] = compound: CN1CCN(c2nc(C3=C(c4c[nH]c5ccccc45)C(=O)NC3=O)c3ccccc3n2)CC1 [sotrastaurin]
Summary of the method: as §1

[34] = compound: CN1CC[C@H](c2c(O)cc(O)c3c(=O)cc(-c4ccccc4Cl)oc23)[C@H](O)C1 [alvocidib]
Summary of the method: as §1

[35] = compound: CN1CCc2c(c3ccccc3n2Cc2ccc(C(=O)NO)cc2)C1 [Tubastatin A]
Summary of the method: as §1

[36] = compound: CNC(=O)C1=CC=CC=C1NC2=NC(=NC=C2Cl)NC3=C(C=C(C=C3)N4CCOCC4)OC
Summary of the method: as §1

[37] = compound: CNC(=O)c1ccc(Nc2ncc(C(F)(F)F)c(NCc3nccnc3N(C)S(C)(=O)=O)n2)cc1 [defactinib]
Summary of the method: as §1

[38] = compound: CNc1nc(-c2ccc3c(N)n[nH]c3c2)cc(N2C[C@@H](C(=O)NC3CCCCC3)CC[C@H]2C)n1
Summary of the method: as §1

[39] = compound: COC(=O)N[C@@H](C)CNc1nccc(-c2cn(C(C)C)nc2-c2cc(Cl)cc(NS(C)(=O)=O)c2F)n1 [encorafenib]
Summary of the method: as §1

[40] = compound: COC(=O)[C@H](CCSC)NC(=O)C1=C(C=C(C=C1)NC[C@H](CS)N)C2=CC=CC=C2
Summary of the method: as §1

[41] = compound: COc1cc(Nc2ncc3c(n2)-c2ccc(Cl)cc2C(c2c(F)cccc2OC)=NC3)ccc1C(=O)O [alisertib]
Summary of the method: as §1

[42] = compound: COc1cc2nc(-c3cc(F)ccc3O)nc(N[C@@H]3CNC[C@H]3C(C)(C)O)c2cc1OC
Summary of the method: as §1

[43] = compound: COc1cc2ncnc(Nc3ccc(F)c(Cl)c3)c2cc1OCCCN1CCOCC1 [gefitinib]
Summary of the method: as §1

[44] = compound: CS(=O)(=O)CCNCc1ccc(-c2ccc3ncnc(Nc4ccc(OCc5cccc(F)c5)c(Cl)c4)c3c2)o1 [lapatinib]
Summary of the method: as §1

[45] = compound: CS(=O)(=O)N1CCN(Cc2cc3nc(-c4cccc5[nH]ncc45)nc(N4CCOCC4)c3s2)CC1 [pictilisib]
Summary of the method: as §1

[46] = compound: C[C@@H](Oc1cc(-c2cnn(C3CCNCC3)c2)cnc1N)c1c(Cl)ccc(F)c1Cl [crizotinib]
Summary of the method: as §1

[47] = compound: C[C@H](C1=CC=C(C=C1)C(=O)NC2=C3C=CNC3=NC=C2)N
Summary of the method: as §1

[48] = compound: C[C@H](Nc1ncnc2nc[nH]c12)c1cc2cccc(Cl)c2c(=O)n1-c1ccccc1 [duvelisib]
Summary of the method: as §1

[49] = compound: Cc1cc(Nc2cc(CN3CCOCC3)c3nc(C)c(Cc4ccc(Cl)cc4F)n3n2)n[nH]1 [gandotinib]
Summary of the method: as §1

[50] = compound: Cc1cc(Nc2cc(N3CCN(C)CC3)nc(Sc3ccc(NC(=O)C4CC4)cc3)n2)n[nH]1 [tozasertib]
Summary of the method: as §1

[51] = compound: Cc1ccc(-n2nc(C(C)(C)C)cc2NC(=O)Nc2ccc(OCCN3CCOCC3)c3ccccc23)cc1 [doramapimod]
Summary of the method: as §1

[52] = compound: Cc1ccc(NC(=O)c2ccc(CN3CC[C@H](N(C)C)C3)c(C(F)(F)F)c2)cc1Nc1nccc(-c2cncnc2)n1 [bafetinib]
Summary of the method: as §1

[53] = compound: Cc1cccc(CC(=O)N2CCc3c2ccc(-c2cn(C)c4ncnc(N)c24)c3F)n1
Summary of the method: as §1

[54] = compound: Cc1cn(-c2cc(NC(=O)c3ccc(C)c(Nc4nccc(-c5cccnc5)n4)c3)cc(C(F)(F)F)c2)cn1 [nilotinib]
Summary of the method: as §1

[55] = compound: Cc1nc(Nc2n[nH]c3c2CN(C(=O)N[C@H](CN(C)C)c2ccccc2)C3(C)C)c2sccc2n1
Summary of the method: as §1

[56] = compound: Cc1nc(Nc2ncc(C(=O)Nc3c(C)cccc3Cl)s2)cc(N2CCN(CCO)CC2)n1 [dasatinib]
Summary of the method: as §1

[57] = compound: Cc1ncc(-c2ccnc(Nc3ccc(S(C)(=O)=O)cc3)n2)n1C(C)C
Summary of the method: as §1

[58] = compound: Cc1sc2c(c1C)C(c1ccc(Cl)cc1)=N[C@@H](CC(=O)OC(C)(C)C)c1nnc(C)n1-2
Summary of the method: as §1

[59] = compound: Cn1cc(-c2ccc3c(c2)CCN3C(=O)Cc2cccc(C(F)(F)F)c2)c2c(N)ncnc21
Summary of the method: as §1

[60] = compound: Cn1cc(CNCC2CCN(c3ncc(C(=O)NO)cn3)CC2)c2ccccc21 [quisinostat]
Summary of the method: as §1

[61] = compound: Cn1cncc1[C@@](N)(c1ccc(Cl)cc1)c1ccc2c(c1)c(-c1cccc(Cl)c1)cc(=O)n2C [tipifarnib]
Summary of the method: as §1

[62] = compound: NC(=O)Nc1cc(-c2cccc(F)c2)sc1C(=O)N[C@H]1CCCNC1
Summary of the method: as §1

[63] = compound: NC(=O)c1cnc(N[C@@H]2CCCC[C@@H]2N)nc1Nc1cccc(-n2nccn2)c1
Summary of the method: as §1

[64] = compound: NC1(c2ccc(-c3nc4ccn5c(=O)[nH]nc5c4cc3-c3ccccc3)cc2)CCC1
Summary of the method: as §1

[65] = compound: NCC(=O)Nc1ccc(-n2nc(C(F)(F)F)cc2-c2ccc3c(ccc4ccccc43)c2)cc1
Summary of the method: as §1

[66] = compound: O=C(CCCCCCC(=O)Nc1ccccc1)NO [vorinostat]
Summary of the method: as §1

[67] = compound: O=C(O)c1ccc2c(c1)nc(Nc1cccc(Cl)c1)c1ccncc12 [silmitasertib]
Summary of the method: as §1

[68] = compound: O=C1NC(=O)C(c2cnc3ccccn23)=C1c1cn2c3c(cc(F)cc13)CN(C(=O)N1CCCCC1)CC2
Summary of the method: as §1

[69] = compound: c1ccc([C@@H]2C[C@H]2NC2CCNCC2)cc1
Summary of the method: as §1

[70] = compound: c1cn2cc(-c3ccc4cn[nH]c4c3)nc(Nc3ccc(N4CCOCC4)cc3)c2n1 [entospletinib]
Summary of the method: as §1

Measured: log2 fold change

SARS2 (UniProt Q9NP81)
inactive: [1] 0.004 | [2] 0.051 | [3] -0.042 | [4] -0.026 | [5] 0.045 | [6] 0.006 | [7] -0.041 | [8] 0.012 | [9] -0.033 | [10] 0.036 | [11] 0.01 | [12] -0.014 | [13] 0.025 | [14] -0.022 | [15] -0.022 | [16] 0.058 | [17] -0.024 | [18] -0.015 | [19] -0.01 | [20] 0.016 | [21] 0.038 | [22] 0 | [23] 0.013 | [24] 0.02 | [25] 0.022 | [26] -0.014 | [27] -0.002 | [28] -0.025 | [29] 0.006 | [30] -0.013 | [31] 0.02 | [32] -0.006 | [33] 0.048 | [34] 0.021 | [35] -0.046 | [36] 0.006 | [37] -0.017 | [38] 0.011 | [39] -0.051 | [40] 0.078 | [41] 0.041 | [42] 0 | [43] -0.025 | [44] 0.024 | [45] -0.049 | [46] -0.035 | [47] -0.006 | [48] -0.01 | [49] 0.007 | [50] -0.015 | [51] 0.028 | [52] -0.084 | [53] 0.037 | [54] 0.001 | [55] 0.003 | [56] -0.002 | [57] 0.036 | [58] 0.006 | [59] 0.01 | [60] -0.028 | [61] 0.009 | [62] 0.033 | [63] -0.019 | [64] 0.003 | [65] -0.002 | [66] -0.058 | [67] 0.046 | [68] 0.005 | [69] 0.001 | [70] 0.022
